4 molecules from doi:10.1101/2021.12.21.473719 can be followed below.

Assay [1] addresses POPDC1Δ236 with a half of Venus for BiFC (transmembrane domain of POPDC1) (mouse). Put plainly: split reporter.
Assay [2] deals with POPDC1Δ236-Myc (transmembrane domain of POPDC1, Myc-tagged) (mouse). Put plainly: co-IP.
In assay [3] the target is GFP-tagged TREK-1 (human). Put plainly: co-IP.

No constants are given. Whether binding was seen depends on the method and setting. Binding seen in cells or lysates may run through a third protein. Binding calls can cover weak binding; strength is not graded here. For some of these results: Tags and fused reporters may be left off the sequences shown.

B1: AC9-VN / AC9-VC (AC9 with a half of Venus for BiFC) (enzyme, UniProt O60503 1-1353)
chain: MASPPHQQLLHHHSTEVSCDSSGDSNSVRVKINPKQLSSNSHPKHCKYSISSSCSSSGDSGGVPRRVGGGGRLRRQKKLPQLFERASSRWWDPKFDSVNLEEACLERCFPQTQRRFRYALFYIGFACLLWSIYFAVHMRSRLIVMVAPALCFLLVCVGFFLFTFTKLYARHYAWTSLALTLLVFALTLAAQFQVLTPVSGRGDSSNLTATARPTDTCLSQVGSFSMCIEVLFLLYTVMHLPLYLSLCLGVAYSVLFETFGYHFRDEACFPSPGAGALHWELLSRGLLHGCIHAIGVHLFVMSQVRSRSTFLKVGQSIMHGKDLEVEKALKERMIHSVMPRIIADDLMKQGDEESENSVKRHATSSPKNRKKKSSIQKAPIAFRPFKMQQIEEVSILFADIVGFTKMSANKSAHALVGLLNDLFGRFDRLCEETKCEKISTLGDCYYCVAGCPEPRADHAYCCIEMGLGMIKAIEQFCQEKKEMVNMRVGVHTGTVLCGILGMRRFKFDVWSNDVNLANLMEQLGVAGKVHISEATAKYLDDRYEMEDGKVIERLGQSVVADQLKGLKTYLISGQRAKESRCSCAEALLSGFEVIDGSQVSSGPRGQGTASSGNVSDLAQTVKTFDNLKTCPSCGITFAPKSEAGAEGGAPQNGCQDEHKNSTKASGGPNPKTQNGLLSPPQEEKLTNSQTSLCEILQEKGRWAGVSLDQSALLPLRFKNIREKTDAHFVDVIKEDSLMKDYFFKPPINQFSLNFLDQELERSYRTSYQEEVIKNSPVKTFASPTFSSLLDVFLSTTVFLTLSTTCFLKYEAATVPPPPAALAVFSAALLLEVLSLAVSIRMVFFLEDVMACTKRLLEWIAGWLPRHCIGAILVSLPALAVYSHVTSEYETNIHFPVFTGSAALIAVVHYCNFCQLSSWMRSSLATVVGAGPLLLLYVSLCPDSSVLTSPLDAVQNFSSERNPCNSSVPRDLRRPASLIGQEVVLVFFLLLLLVWFLNREFEVSYRLHYHGDVEADLHRTKIQSMRDQADWLLRNIIPYHVAEQLKVSQTYSKNHDSGGVIFASIVNFSEFYEENYEGGKECYRVLNELIGDFDELLSKPDYSSIEKIKTIGATYMAASGLNTAQAQDGSHPQEHLQILFEFAKEMMRVVDDFNNNMLWFNFKLRVGFNHGPLTAGVIGTTKLLYDIWGDTVNIASRMDTTGVECRIQVSEESYRVLSKMGYDFDYRGTVNVKGKGQMKTYLYPKCTDHRVIPQHQLSISPDIRVQVDGSIGRSPTDEIANLVPSVQYVDKTSLGSDSSTQAKDAHLSPKRPWKEPVKAEERGRFGKAIEKDDCDETGIEEANELTKLNVSKSV
For the molecule B1, the binding result in assay [1] is recorded as “binds”.

B2: Flag-tagged AC9 (adenylyl cyclase type 9) (enzyme, UniProt O60503 1-1353)
chain: MASPPHQQLLHHHSTEVSCDSSGDSNSVRVKINPKQLSSNSHPKHCKYSISSSCSSSGDSGGVPRRVGGGGRLRRQKKLPQLFERASSRWWDPKFDSVNLEEACLERCFPQTQRRFRYALFYIGFACLLWSIYFAVHMRSRLIVMVAPALCFLLVCVGFFLFTFTKLYARHYAWTSLALTLLVFALTLAAQFQVLTPVSGRGDSSNLTATARPTDTCLSQVGSFSMCIEVLFLLYTVMHLPLYLSLCLGVAYSVLFETFGYHFRDEACFPSPGAGALHWELLSRGLLHGCIHAIGVHLFVMSQVRSRSTFLKVGQSIMHGKDLEVEKALKERMIHSVMPRIIADDLMKQGDEESENSVKRHATSSPKNRKKKSSIQKAPIAFRPFKMQQIEEVSILFADIVGFTKMSANKSAHALVGLLNDLFGRFDRLCEETKCEKISTLGDCYYCVAGCPEPRADHAYCCIEMGLGMIKAIEQFCQEKKEMVNMRVGVHTGTVLCGILGMRRFKFDVWSNDVNLANLMEQLGVAGKVHISEATAKYLDDRYEMEDGKVIERLGQSVVADQLKGLKTYLISGQRAKESRCSCAEALLSGFEVIDGSQVSSGPRGQGTASSGNVSDLAQTVKTFDNLKTCPSCGITFAPKSEAGAEGGAPQNGCQDEHKNSTKASGGPNPKTQNGLLSPPQEEKLTNSQTSLCEILQEKGRWAGVSLDQSALLPLRFKNIREKTDAHFVDVIKEDSLMKDYFFKPPINQFSLNFLDQELERSYRTSYQEEVIKNSPVKTFASPTFSSLLDVFLSTTVFLTLSTTCFLKYEAATVPPPPAALAVFSAALLLEVLSLAVSIRMVFFLEDVMACTKRLLEWIAGWLPRHCIGAILVSLPALAVYSHVTSEYETNIHFPVFTGSAALIAVVHYCNFCQLSSWMRSSLATVVGAGPLLLLYVSLCPDSSVLTSPLDAVQNFSSERNPCNSSVPRDLRRPASLIGQEVVLVFFLLLLLVWFLNREFEVSYRLHYHGDVEADLHRTKIQSMRDQADWLLRNIIPYHVAEQLKVSQTYSKNHDSGGVIFASIVNFSEFYEENYEGGKECYRVLNELIGDFDELLSKPDYSSIEKIKTIGATYMAASGLNTAQAQDGSHPQEHLQILFEFAKEMMRVVDDFNNNMLWFNFKLRVGFNHGPLTAGVIGTTKLLYDIWGDTVNIASRMDTTGVECRIQVSEESYRVLSKMGYDFDYRGTVNVKGKGQMKTYLYPKCTDHRVIPQHQLSISPDIRVQVDGSIGRSPTDEIANLVPSVQYVDKTSLGSDSSTQAKDAHLSPKRPWKEPVKAEERGRFGKAIEKDDCDETGIEEANELTKLNVSKSV
Turning to B2, the binding result in assay [2] is recorded as “binds”.

B3: POPDC1-Myc (Popeye domain-containing protein 1, Myc-tagged) (protein, UniProt Q9ES83 1-358)
chain: MNSTESIPLAQSTVAGFTSELESLTPVPSNETTCENWREIHHLVFHVANVCFAVGLLIPTTLHLHMILLRVMLSLGCTLYVVWATLYRCALDVMIWNSVFLGINILHLSYLLYKKRPVKIEKELGGVYHRLFEPLRVPPDLFRRLTGQFCMIQTLKRGQVYATEDKTSVDDRLSILLKGRMKVSYRGHFLHNIYPCAFIDSPEFRSTQMHKGEKFQVTIVADDNCRFLCWSRERLTYFLESEPFLYEIFRYLIGKDITNKLYSLNDPTLNDKKVKKLEPQMSLCTQISMLEMRNSITSSSDGEDGLHHFLRGSSSTASLPMSSPQQRASAKMKPIEEGVEDDDEVFVSPDALKVHQLP
Regarding B3, in assay [3], the binding entry was “binds”.

B4: endogenous POPDC1 of HEK293 cells (protein, UniProt Q8NE79 1-360)
chain: MNYTESSPLRESTAIGFTPELESIIPVPSNKTTCENWREIHHLVFHVANICFAVGLVIPTTLHLHMIFLRGMLTLGCTLYIVWATLYRCALDIMIWNSVFLGVNILHLSYLLYKKRPVKIEKELSGMYRRLFEPLRVPPDLFRRLTGQFCMIQTLKKGQTYAAEDKTSVDDRLSILLKGKMKVSYRGHFLHNIYPCAFIDSPEFRSTQMHKGEKFQVTIIADDNCRFLCWSRERLTYFLESEPFLYEIFRYLIGKDITNKLYSLNDPTLNDKKAKKLEHQLSLCTQISMLEMRNSIASSSDSDDGLHQFLRGTSSMSSLHVSSPHQRASAKMKPIEEGAEDDDDVFEPASPNTLKVHQLP
Take B4: in assay [3], the binding result is on record as “binds”.
